Experiments:
[1] = test system: Ventricular tachycardia (VT) induced by rapid ventricular pacing
Excerpt: Ventricular tachycardia was induced and maintained by rapid ventricular pacing in an open-chest dog model using male mongrel dogs (10-15 kg). Three sets of bipolar epicardial electrodes were placed at 2 cm distances from the left ventricular apex toward the base of the heart. A Grass Model 8 stimulator (Grass Instruments, delivered continuous electrical stimulation as 2-msec square wave impulses with a 50-msec cycle length via a stimulus isolation unit (Bloom Associates, Reading, Pa.). The stimulus isolation unit also repeatedly monitored the pacing current thresholds. After induction of ventricular tachycardia, a controlled release dosage form of the present invention in the shape of a patch of the drug-loaded polymeric matrix material was placed adjacent to the stimulating electrode. The time required to convert the ventricular tachycardia to sinus rhythm was measured, as well as the time course of the quantitative change for sustaining the induction of ventricular tachycardia. The effects of controlled release were monitored for up to 4 hours after conversion to normal sinus rhythm.
All other dosage forms were fabricated by dissolving the therapeutic agent in dimethylacetamide at a concentration of 100 mg/ml therapeutic agent. This solution was further dissolved in a 10% solution of a Thyomer polyurethane and solvent cast into a 0.2 mm films. […] Controls comprised patches of each polymeric matrix material.

[2] = test system: Ouabain-induced ventricular tachycardia; details: in words

CCN(CC)CC(=O)Nc1c(C)cccc1C [Lidocaine, lidocaine]
peripheral plasma levels of lidocaine ([1]; dog, in vivo): undetectable
Effectiveness in converting ventricular tachycardia ([1]; in words, controlled release dosage form, epicardial): effectiveness in converting-tachycardia to normal sinus rhythm
Conversion ([1]; mean ± standard error, patches: lidocaine 28% in Tecoflex (N 16), procainamide 30% in Thyomer (7), amiodarone 30% in Thyomer with 10% polyethyleneglycol 200 (3), NiCl2 50% in Thyomer (4)): 0.86 ± 0.68 min
Conversion of ouabain-induced ventricular tachycardia to normal sinus rhythm [2]: converted to normal sinus rhythm in all experimental animals studied

Reference: patent publication US5387419A, “System for controlled release of antiarrhythmic agents” (The University of Michigan, priority 1993, dated 1995)
